Article PMC9457086
These are yes or no findings as the source states them, for the method shown. In cells and extracts the contact can be indirect. Some entries that bind do so weakly or less than the wild type. Sequences can lack the tags named with a protein.

By UniProt entry, the sequences of proteins in these tests, tags left out.
UniProt P11142: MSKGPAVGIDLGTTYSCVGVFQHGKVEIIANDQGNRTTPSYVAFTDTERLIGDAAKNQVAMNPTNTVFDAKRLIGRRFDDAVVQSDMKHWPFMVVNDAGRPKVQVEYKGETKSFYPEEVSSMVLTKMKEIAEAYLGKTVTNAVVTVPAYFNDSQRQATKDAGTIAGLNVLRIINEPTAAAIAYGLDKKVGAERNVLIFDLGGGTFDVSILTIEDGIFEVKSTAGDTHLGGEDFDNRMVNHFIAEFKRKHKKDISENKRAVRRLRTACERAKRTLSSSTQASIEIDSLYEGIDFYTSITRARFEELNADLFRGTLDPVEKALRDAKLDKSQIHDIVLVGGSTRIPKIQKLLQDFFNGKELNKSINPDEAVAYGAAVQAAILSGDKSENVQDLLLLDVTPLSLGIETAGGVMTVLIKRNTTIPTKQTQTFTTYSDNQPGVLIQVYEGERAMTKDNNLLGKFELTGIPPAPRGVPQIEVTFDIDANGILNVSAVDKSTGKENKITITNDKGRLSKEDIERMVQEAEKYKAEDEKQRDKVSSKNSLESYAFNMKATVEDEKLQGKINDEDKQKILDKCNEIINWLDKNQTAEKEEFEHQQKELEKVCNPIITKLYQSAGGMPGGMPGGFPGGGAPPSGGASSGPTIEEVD

Molecular target: T1, phosphatase and actin regulator-1 (PHACTR1), overexpressed from adenovirus Ad-PHACTR1 (human) (UniProt Q9C0D0)
T1 sequence: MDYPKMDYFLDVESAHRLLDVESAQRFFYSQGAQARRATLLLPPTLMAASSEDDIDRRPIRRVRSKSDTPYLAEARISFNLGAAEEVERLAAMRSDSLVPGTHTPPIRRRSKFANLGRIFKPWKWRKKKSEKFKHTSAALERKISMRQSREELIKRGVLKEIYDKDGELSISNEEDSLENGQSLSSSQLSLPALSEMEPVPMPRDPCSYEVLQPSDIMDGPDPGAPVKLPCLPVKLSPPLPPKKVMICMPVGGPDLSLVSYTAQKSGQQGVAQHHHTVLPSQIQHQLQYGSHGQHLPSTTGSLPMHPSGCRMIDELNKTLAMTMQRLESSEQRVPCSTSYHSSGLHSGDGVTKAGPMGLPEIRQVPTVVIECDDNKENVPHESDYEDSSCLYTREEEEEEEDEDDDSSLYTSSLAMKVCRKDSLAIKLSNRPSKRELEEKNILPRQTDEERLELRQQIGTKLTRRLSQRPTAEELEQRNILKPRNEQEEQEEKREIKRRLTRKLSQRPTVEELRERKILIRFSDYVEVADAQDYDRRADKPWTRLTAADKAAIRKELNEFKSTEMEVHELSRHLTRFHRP
Assay: co-IP; Co-IP of PHACTR1 and HSPA8 in HUVECs treated with TNF-α (10 ng/mL, 6 h); immunoprecipitation-based verification

- binding: binds
Substance: heat shock protein family A member 8 (HSPA8) (from UniProt P11142 1-646)
